No constants are given. Whether binding was seen depends on the method and setting. Some entries that bind do so weakly or less than the wild type.
What was measured:
人ST2抗原 (human) [1] = target: 人ST2抗原 (human) (UniProt Q01638); assay: double-antibody sandwich ELISA with C11, OD450
人ST2抗原 (human) [2] = target: 人ST2抗原 (human) (UniProt Q01638); assay: fluorescent immunochromatographic strip, C11 on the T line, D12 on fluorescent microspheres

Protein sequences, listed by entry. Tags and fused reporters are not part of them. Residues count along the entry.
UniProt Q01638, residues 19-328: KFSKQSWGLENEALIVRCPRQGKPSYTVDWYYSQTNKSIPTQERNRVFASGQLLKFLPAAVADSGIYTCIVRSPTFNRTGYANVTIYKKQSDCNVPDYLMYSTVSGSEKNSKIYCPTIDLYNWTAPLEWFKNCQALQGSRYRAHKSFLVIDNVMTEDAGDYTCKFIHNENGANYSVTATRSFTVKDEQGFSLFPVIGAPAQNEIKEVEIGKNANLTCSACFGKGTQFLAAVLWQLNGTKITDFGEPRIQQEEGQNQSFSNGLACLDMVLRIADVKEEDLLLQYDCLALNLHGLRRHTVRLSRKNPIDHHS

B1: 检测抗体D12(抗人ST2的单克隆抗体) (antibody, V domains shown)
VH: QVTLKESGPGILQPSQTLSLTCSFSGFSLSTSGMGVGWIRQPSGKGLEWLAHIWWDDVKQYNPALKSRLTISKDTSSSQVFLKIASVDTADIATYYCARLGGNWDYFDYWGQGTTLTVSS
VL: DIVLTQSPASLVVSLGQRATISCRASESVDSCGVSFMKWLQQKPGQPPKLLIYVASKVESGVPARFGGSGSGTDFSLNIHPVEEDDFAVYFCQQSRKVPWTFGGGTKLEIK
In the case of B1, the binding (人ST2抗原 (human) [1]) is reported as “binds” and the binding (人ST2抗原 (human) [2]) is reported as “binds”.
